The values below are quoted from earlier work in US7820199B2, “Stable extended release oral dosage composition” (Schering Corporation, priority 1999, dated 2010).

The structures appear in SMILES notation.

The conditions of series [1]: mice, comparison of ED50 value.
Another series has as its system cells of human origin. The conditions noted are these: in vitro, mainly cells of human origin; independent of H1-antagonist effect.
For series [2] the following is noted: over 3,200 patients, 4 double-blind randomized trials, adult and adolescent patients.

As to `Clc1ccc2c(c1)CCc1cccnc1C2=C1CCNCC1` [desloratadine], the “alterations in behavior, neurologic or autonomic function” value in series [1] is on record as “relatively free of producing alterations in behavior”. Further, in the series on cells of human origin, the “inhibition of events in the cascade of allergic inflammation” value is given as “can inhibit many events in the cascade of allergic inflammation”. Further, the “clinical efficacy in seasonal rhinitis” value in series [2] is recorded as “demonstrated the efficacy”.
